Our source for the survivor count and T/C values is PubChem BioAssay AID328 (DTP/NCI, 2004).

Molecules are shown by their SMILES. The list shows only some results of the screen, not a fair sample: it gathers tests that were run many times, whatever their T/C, doses with no T/C, and many T/C values between a quarter and a half above the control. Further doses and runs are listed elsewhere. T/C is the treated group as % of the vehicle group. Some doses have a count of surviving animals in place of a T/C: the source holds a T/C of zero for them, seemingly a mark for toxic or unscored doses. Some survivor counts are full or nearly so, which does not show that the dose was tolerated: survival well below the control is almost never listed, so the zero probably covers shortened survival too. Survivors were counted at the toxicity check, usually on the fifth day, unless a day is given; later deaths do not show. Schedules are NCI's codes, read here as Q, the interval in days (D) or hours (H), X, the number of doses. Some entries were tested several times; the results are listed from low to high. For survival time, this PubChem deposit counts one and a half times the control or more as active, and values a quarter to a half above the control carry no call in these data; other NCI protocols may use other cut-offs.

For this experiment, the system named is BDF1 mice, P388 leukemia ip, median survival T/C. Nature of the experiment: NCI In Vivo Anticancer Drug Screen. Data for tumor model P388 Leukemia (intraperitoneal) in B6D2F1 (BDF1) mice. Conditions: T/C endpoint: median survival time, higher T/C = longer survival. The method, boiled down: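 Reported as T/C, where T is the survival measurement in dosed animals and C the same measurement in vehicle controls.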

The mark [1] stands for this setting: dose: 100.0 mg/kg/injection, schedule: Q01DX009 (ip), vehicle: saline with Tween-80.
[2] abbreviates: dose: 200.0 mg/kg/injection, schedule: Q01DX009 (ip), vehicle: saline with Tween-80.

As to `O=c1[nH]nc(-c2ccccc2)nc1/C(=N\Nc1ccccc1)c1ccccc1`, the survivor count runs as follows: (dose: 50.0 mg/kg/injection, schedule: Q01DX009 (ip), vehicle: saline with Tween-80) 6 of 6; under setting [1], 6 of 6; under setting [2], 5 of 6.

As for `COc1cc(C=Nc2ccc(C(=O)O)c(O)c2)ccc1N(CCCl)CCCl`, the survivor count (dose: 18.0 mg/kg/injection, schedule: Q01DX009 (ip), vehicle: Klucel (hydroxypropylcellulose) (HPC)) was 6 of 6; the survivor count (dose: 50.0 mg/kg/injection, schedule: Q01DX009 (ip), vehicle: Klucel (hydroxypropylcellulose) (HPC)) is 5 of 6; the survivor count (dose: 75.0 mg/kg/injection, schedule: Q04DX003 (ip), vehicle: Klucel (hydroxypropylcellulose) (HPC)) is 3 of 6; the survivor count (dose: 115.0 mg/kg/injection, schedule: Q04DX003 (ip), vehicle: Klucel (hydroxypropylcellulose) (HPC)) is 1 of 6; the survivor count (dose: 170.0 mg/kg/injection, schedule: Q04DX003 (ip), vehicle: Klucel (hydroxypropylcellulose) (HPC)) is reported as 0 of 6. Besides, the T/C (dose: 25.0 mg/kg/injection, schedule: Q01DX009 (ip), vehicle: Klucel (hydroxypropylcellulose) (HPC)) is 140 % of control.

In the case of `CCCCCCCCCCC(C)c1ccc(S(=O)(=O)O)cc1` (stereo not given), the T/C under setting [1] is 136 % of control. In addition, under setting [2], the survivor count is given as 1 of 6.

`CCCCCCCCSC(=S)SCC(=O)O`: the survivor count under setting [2] is reported as 2 of 6.

As for `COc1cc2cc(c1Cl)NC(=O)CC(OC(=O)C(C)N(C)C(=O)C1(C)CC1C)C1(C)OC1C(C)C1CC(O)(NC(=O)O1)C(OC)C=C/C=C(\C)C2` (stereo not given), the T/C reads like this: (dose: 0.1 micrograms/kg/injection, schedule: Q01DX009 (ip), vehicle: saline + alcohol) 126 % of control; (dose: 0.2 micrograms/kg/injection, schedule: Q01DX009 (ip), vehicle: saline + alcohol) 126 % of control; (dose: 0.4 micrograms/kg/injection, schedule: Q01DX009 (ip), vehicle: saline + alcohol) 145 % of control; (dose: 0.8 micrograms/kg/injection, schedule: Q01DX009 (ip), vehicle: saline + alcohol) 149 % of control. Further, the survivor count (dose: 50.0 micrograms/kg/injection, schedule: Q01DX009 (ip), vehicle: saline + alcohol) is 4 of 6 and 3 of 4.

In the case of `CCNC(C)(C)C(Cl)c1cccs1` (stereo not given), the survivor count (dose: 12.5 mg/kg/injection, schedule: Q01DX009 (ip), vehicle: saline) is on record as 6 of 6; the survivor count (dose: 37.5 mg/kg/injection, schedule: Q01DX009 (ip), vehicle: saline) is listed as 5 of 6; the survivor count (dose: 75.0 mg/kg/injection, schedule: Q01DX009 (ip), vehicle: saline) was 4 of 6; the survivor count (dose: 150.0 mg/kg/injection, schedule: Q01DX009 (ip), vehicle: saline) is 4 of 6; the survivor count (dose: 200.0 mg/kg/injection, schedule: Q01DX009 (ip), vehicle: saline) is on record as 3 of 6; the survivor count (dose: 300.0 mg/kg/injection, schedule: Q01DX009 (ip), vehicle: saline) is on record as 0 of 6. Further, the survivor count (dose: 400.0 mg/kg/injection, schedule: Q04DX003 (ip), vehicle: saline) is given as 1 of 6.

As for `COc1cccc2c(Cl)c(CCl)c(C)nc12`, the survivor count under setting [1] is listed as 4 of 6; the survivor count under setting [2] was 0 of 6; the survivor count (dose: 400.0 mg/kg/injection, schedule: Q01DX009 (ip), vehicle: saline with Tween-80) is recorded as 0 of 6.

As to `O=C(CC(O)(C(F)(F)F)C(F)(F)F)c1ccc(F)cc1`, where the note is “dose: 200.0 mg/kg/injection, schedule: Q04DX003 (ip), vehicle: other”, the T/C was 130 % of control. For the same molecule, the survivor count (dose: 400.0 mg/kg/injection, schedule: Q04DX003 (ip), vehicle: other) is given as 6 of 6.

Turning to `O=C(Nc1ccc(C2=NCCN2)cc1)c1cccc(C(=O)Nc2ccc(C3=NCCN3)cc2)c1`, under “dose: 8.0 mg/kg/injection, schedule: Q01DX010 (ip), vehicle: saline”, the T/C was 145 % of control.
